SMILES strings stand for the structures. The list shows a part of the results. Further columns of the screen follow, without active or inactive calls. Most of these compounds were active or inconclusive in the main read-out, so they are no random draw. The note in brackets gives the kind of curve behind each potency; many fits are weak.

This passage reports AC50 results from PubChem BioAssay AID662 (National Center for Advancing Translational Sciences (NCATS), 2007).

The nature of the assay: Cell signaling CRE-BLA (Fsk stim). The conditions noted are these: CHO CRE-bla reporter (cAMP response element driving beta-lactamase), forskolin EC10, beta-lactamase ratio; measured here: 460 nm blue channel. The gist of the method: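 The 460nm/530nm emission ratio after CCF4 loading defined %Activity, from which AC50 values were obtained. CRE-bla CHO cells received compound dilution series together with an EC10 level of NKH 477 for 3 hours at 37 degrees Celsius.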
In general, AC50 refers to the concentration at which the activity in the assay is half-maximal. As for `CSc1ccccc1NC(=O)Cn1c(-c2cscn2)nc2ccccc21`, the AC50 was 25.1 µM [rising, partial curve].

Take `CN1C(=O)c2c(sc3c2CC(C)(C)SC3)N2CCN=C12`: the AC50 was 5.01 µM [falling, single point].

Turning to `COc1ccccc1CNc1nc(-c2cccnc2)nc2ccccc12`, the AC50 is 12.6 µM [rising, partial curve]. With `CN1CSC2=C(C#N)C(c3cccc(OCc4ccccc4)c3)CC(=O)N2C1` (stereo not drawn), the AC50 was 12.6 µM [rising, partial curve]. In the case of `c1ccc(Cn2ncc3c(N4CCCCC4)ncnc32)cc1`, the concentration at half-maximal activity (AC50) is 12.6 µM [rising, partial curve]. As for `CCn1c(Cn2nnc(-c3ccccc3)n2)nnc1SCc1ccc(Cl)c(Cl)c1`, the AC50 was 0.00398 µM [falling, full curve, poor fit]. Consider `Nc1ccccc1O`, for which the AC50 is 15.8 µM [falling, partial curve, poor fit]. With `O=c1cc(C(F)(F)F)c2sc(N3CCCCC3)nc2[nH]1`, the AC50 was 12.6 µM [rising, single point]. The figure for `O=C(c1oc2ccccc2c1CSCc1ccccc1)N1CCN(c2ncccn2)CC1` is 15.8 µM [falling, single point]; for `CCN(CC)S(=O)(=O)N1CCC(C(=O)NC2CCCC2)CC1` it is 5.01 µM [falling, single point]; for `Cc1cc(C)n2nc(SCC(=O)c3ccc[nH]3)nc2n1` it is 12.6 µM [rising, single point]. Turning to `CC(C)n1nc(C(=O)Nc2nc3ccc(S(C)(=O)=O)cc3s2)c2ccccc2c1=O`, the half-maximal activity concentration (AC50) was 12.6 µM [rising, partial curve, poor fit]. Turning to `COc1cc(NC(=O)c2cc(OC)c(OC)c(OC)c2)c(OC)cc1NC(=O)CN1CCCCC1`, the half-maximal activity concentration (AC50) was 10 µM [rising, partial curve]. In the case of `OC(Cn1cncn1)c1ccc(Cl)cc1` (stereo not drawn), the AC50 is 0.00316 µM [falling, full curve, poor fit]. Turning to `Cc1cccc(-n2c(CCN3C(=O)c4ccccc4C3=O)nc3ccccc3c2=O)n1`, the concentration at half-maximal activity (AC50) was 7.94 µM [rising, partial curve]. Consider `COCCCN(C(=O)c1ccco1)c1nc(-c2cc(OC)ccc2OC)cs1`, for which the AC50 is 6.31 µM [rising, partial curve].

In the case of `CC(C)Cc1cc(C(=O)Nc2sc3c(c2C#N)CCCC3)no1`, the concentration at half-maximal activity (AC50) was 2.51 µM [rising, full curve, poor fit]. The figure for `COCC(C)n1c(C)cc(C(=O)COC(=O)c2c(C)nn(-c3ccccc3)c2C)c1C` (stereo not drawn) is 12.6 µM [rising, partial curve].

For `Cn1cnc(S(=O)(=O)N2CCc3ccccc32)c1`, the AC50 is 0.0501 µM [falling, partial curve, poor fit]. In the case of `N#CCCn1c(=O)cnc2cnc(Oc3ccccc3)nc21`, the concentration at half-maximal activity (AC50) is 1.26 µM [rising, partial curve]. To `Cc1csc(C(C#N)C(=O)c2ccncc2)n1` (stereo not drawn) belongs 1 µM [falling, single point]; to `CCN1CCN(C(c2cccs2)C(C)NC(=O)CC(C)C)CC1` (stereo not drawn), 25.1 µM [rising, single point]. Regarding `Cn1c(CSc2nc3ccccc3s2)nc2ccccc21`, the half-maximal activity concentration (AC50) is 10 µM [rising, partial curve]. As to `CCCCCCC(=O)N(O)C1CC(=O)N(c2ccc(Br)cc2)C1=O` (stereo not drawn), the AC50 was 0.158 µM [falling, full curve]. Turning to `Cc1ccc(Cn2c(=O)c3ccccc3n3c(SCC(=O)N4CCCCC4C)nnc23)cc1` (stereo not drawn), the concentration at half-maximal activity (AC50) is 10 µM [rising, partial curve]. Turning to `COc1ccccc1-c1nc(C#N)c(NCc2ccc(F)cc2)o1`, the concentration at half-maximal activity (AC50) is 10 µM [rising, partial curve]. As to `O=C(NCCc1ccc2c(c1)OCO2)C1CCN(S(=O)(=O)c2ccc(Cl)cc2)CC1`, the half-maximal activity concentration (AC50) was 0.00398 µM [falling, full curve, poor fit]. As for `Cc1ccc(N(C(=O)CNC(=O)c2ccco2)C(C(=O)NCC2CCCO2)c2ccccc2)cc1` (stereo not drawn), the concentration at half-maximal activity (AC50) was 3.16 µM [rising, single point]. On to `CCc1ccc2oc(=O)cc(CN3CCC(C)CC3)c2c1`, for which the AC50 is 15.8 µM [rising, partial curve].

On to `N#Cc1cnc(SCC(=O)c2ccccc2)nc1N`, for which the AC50 is 20 µM [rising, single point].

As to `CCOC(=O)N1CCN(Cc2nc3c(c(=O)[nH]c(=O)n3C)n2Cc2cc(C)ccc2C)CC1`, the half-maximal activity concentration (AC50) was 2 µM [rising, partial curve]. `COc1ccc(-c2cc3nc(-c4ccccc4)cc(N4CCC5(CC4)OCCO5)n3n2)cc1`: the half-maximal activity concentration (AC50) is 10 µM [rising, partial curve].

Turning to `COc1ccc(S(=O)(=O)N2CCN(C(=O)c3cccs3)CC2)cc1OC`, the concentration at half-maximal activity (AC50) was 12.6 µM [rising, single point]. The figure for `COC(=O)c1cnn2c(C)c(Cc3cccc(F)c3)c(C)nc12` is 10 µM [rising, partial curve].

With `CNC(=O)c1cc2cc(OC)ccc2oc1=N`, the AC50 is 6.31 µM [rising, partial curve]. Regarding `CCCCCn1c(SCc2ccncc2)nc2cc(C(=O)NCc3ccco3)ccc2c1=O`, the AC50 was 2.51 µM [rising, single point]. Consider `COc1ccc(S(=O)(=O)Cc2ccc(C(=O)N3CCN(c4ncccn4)CC3)o2)cc1`, for which the AC50 was 12.6 µM [rising, single point]. As to `COc1ncc2nc(-c3ccc(F)cc3)c(=O)n(CCc3ccccc3)c2n1`, the AC50 was 12.6 µM [rising, partial curve]. For `O=c1c(-c2ccc(F)c(F)c2)nc2cncnc2n1C1CC1`, the AC50 is 3.16 µM [falling, single point]. Turning to `Cc1cccc(CNc2nc(-c3cccc(NS(C)(=O)=O)c3)nc3ccccc23)c1`, the AC50 is 15.8 µM [falling, single point]. The figure for `O=C(CNS(=O)(=O)c1ccc(Br)s1)N1CCC(N2CCCCC2)CC1` is 0.251 µM [falling, partial curve]; for `CC(=O)C1=C(C)NC(SCC(=O)c2ccc(Cl)c(Cl)c2)=C(C#N)C1c1ccco1` (stereo not drawn) it is 2 µM [rising, full curve]. Consider `Cc1nc2cnc(Oc3ccccc3)nc2n(CCc2ccccc2)c1=O`, for which the AC50 is 15.8 µM [rising, partial curve]. For the compound `O=C(Nc1nnc(CCc2ccccc2)s1)C1CCCO1` (stereo not drawn), the concentration at half-maximal activity (AC50) was 15.8 µM [rising, single point]. As to `Cc1ccccc1CS(=O)(=O)Cc1ccc(C(=O)NCc2ccco2)o1`, the concentration at half-maximal activity (AC50) is 0.126 µM [falling, full curve]. To `O=C(Nc1cccnc1)c1cc(-c2ccc3c(c2)OCO3)on1` belongs 5.01 µM [rising, single point]; to `O=c1[nH]c2c(s1)C(c1ccco1)C1C3CCC(C3)C1S2` (stereo not drawn), 12.6 µM [rising, partial curve]; to `COc1cccc2[nH]c3c(N4CCCCC4)ncnc3c12`, 12.6 µM [rising, partial curve]. `CCOCC(=O)Nc1sc2c(c1C(=O)OCC)CCCC2`: the concentration at half-maximal activity (AC50) was 10 µM [rising, partial curve]. Regarding `CCOC(=O)c1c(C)oc2cc(Br)c(OC(C)C(=O)OCC)cc12` (stereo not drawn), the AC50 was 15.8 µM [rising, single point]. The figure for `CCCCN(C(=O)c1ccco1)c1nnc(-c2cc(OC)c(OC)c(OC)c2)s1` is 2.51 µM [rising, full curve]; for `O=C(O)CCCc1nc(-c2ccccc2)no1` it is 0.0794 µM [falling, single point]; for `CCS(=O)(=O)N1CCC(C(=O)N2CCOCC2)CC1` it is 0.00501 µM [falling, full curve, poor fit]. As to `Cc1cnn(-c2ccc3nnc(-c4ccc(Br)cc4)n3n2)c1`, the AC50 is 6.31 µM [rising, partial curve]. Consider `CS(=O)(=O)Nc1cccc(-c2nc(Nc3ccccc3)c3ccccc3n2)c1`, for which the concentration at half-maximal activity (AC50) was 0.794 µM [rising, full curve]. To `CCCc1cc(C(=O)Nc2sc(C(C)=O)c(C)c2C(=O)OCC)no1` belongs 0.631 µM [rising, full curve]; to `Cc1nc(NCc2ccco2)nc2c1C(=O)CC(C)C2` (stereo not drawn), 15.8 µM [rising, partial curve]; to `C=C(C)Cn1c(SCC#N)nc2ccccc2c1=O`, 10 µM [rising, partial curve]. Take `O=C(NCc1cccs1)C(NS(=O)(=O)c1cccc2nsnc12)c1ccccc1` (stereo not drawn): the concentration at half-maximal activity (AC50) was 5.01 µM [rising, single point]. Regarding `CC(=O)CSc1ncnc2c1oc1ccccc12`, the AC50 was 5.01 µM [rising, partial curve]. In the case of `CCOc1cc2[nH]c(=O)n(CC3CCC(C(=O)NC4CCCCC4)CC3)c(=O)c2cc1OCC` (stereo not drawn), the AC50 was 0.0794 µM [falling, full curve, poor fit]. For the compound `COc1ccc(CCNC(=O)CSc2nc(N)c(C#N)c(-c3cccs3)c2C#N)cc1OC`, the concentration at half-maximal activity (AC50) was 1.26 µM [rising, full curve].

For the compound `CCN(CC(=O)Nc1ccc2c(c1)OCCO2)Cc1cc(=O)oc2c(C)c(C)ccc12`, the AC50 was 10 µM [rising, partial curve]. In the case of `Cc1cccc(NC(=O)c2sc3nc(-c4ccc(F)cc4)cn3c2C)n1`, the AC50 is 3.16 µM [rising, partial curve].

Consider `CC1CN(S(=O)(=O)c2ccc(NC(=O)CCN3C(=O)c4ccccc4C3=O)cc2)CC(C)O1` (stereo not drawn), for which the half-maximal activity concentration (AC50) is 0.0316 µM [falling, full curve, poor fit]. In the case of `COc1ccc(NC(=O)CN2CCC(C(N)=O)CC2)cc1`, the half-maximal activity concentration (AC50) is 0.0794 µM [falling, partial curve, poor fit]. For the compound `COC(=O)C1=C(C)N(c2ccc(F)c(Cl)c2)C(=O)C1`, the AC50 is 3.16 µM [falling, partial curve].

For `Cc1cccc2cc3c(NC(=O)c4ccccn4)nn(C)c3nc12`, the AC50 was 1.26 µM [rising, partial curve].
